The results in this text go back to patent publication US20130184224A1.

Sequences of proteins named here, by UniProt entry; tags and fusion partners are left off. A change or cut given only in a name is not applied to a line headed by its entry. A line that says so, or that is headed by a name, gives the form on record, which may keep a tag or linker.
UniProt P10275: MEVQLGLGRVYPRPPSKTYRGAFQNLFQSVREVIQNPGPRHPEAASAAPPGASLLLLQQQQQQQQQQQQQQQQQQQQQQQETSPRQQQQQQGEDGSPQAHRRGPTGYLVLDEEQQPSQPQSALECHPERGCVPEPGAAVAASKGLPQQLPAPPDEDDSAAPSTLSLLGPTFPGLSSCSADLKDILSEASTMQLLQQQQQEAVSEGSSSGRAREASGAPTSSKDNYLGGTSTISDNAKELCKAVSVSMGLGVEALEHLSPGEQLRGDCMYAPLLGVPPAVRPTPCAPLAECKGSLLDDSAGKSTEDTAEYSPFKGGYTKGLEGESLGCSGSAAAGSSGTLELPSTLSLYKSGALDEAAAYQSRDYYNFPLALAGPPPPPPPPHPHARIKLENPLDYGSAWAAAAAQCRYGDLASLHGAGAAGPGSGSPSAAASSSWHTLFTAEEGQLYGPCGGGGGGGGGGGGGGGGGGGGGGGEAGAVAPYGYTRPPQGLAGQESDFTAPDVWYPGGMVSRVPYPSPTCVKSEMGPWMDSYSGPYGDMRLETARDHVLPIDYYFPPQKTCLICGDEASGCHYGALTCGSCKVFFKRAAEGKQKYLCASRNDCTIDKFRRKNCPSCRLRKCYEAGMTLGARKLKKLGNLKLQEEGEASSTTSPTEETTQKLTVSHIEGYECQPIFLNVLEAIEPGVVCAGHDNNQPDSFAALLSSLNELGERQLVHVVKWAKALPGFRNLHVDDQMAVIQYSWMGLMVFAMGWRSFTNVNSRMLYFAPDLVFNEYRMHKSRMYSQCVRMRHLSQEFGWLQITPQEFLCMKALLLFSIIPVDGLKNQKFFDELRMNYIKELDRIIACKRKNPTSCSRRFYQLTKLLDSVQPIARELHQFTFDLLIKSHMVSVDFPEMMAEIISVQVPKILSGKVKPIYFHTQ
FLAG-tagged AR (P10275, form named): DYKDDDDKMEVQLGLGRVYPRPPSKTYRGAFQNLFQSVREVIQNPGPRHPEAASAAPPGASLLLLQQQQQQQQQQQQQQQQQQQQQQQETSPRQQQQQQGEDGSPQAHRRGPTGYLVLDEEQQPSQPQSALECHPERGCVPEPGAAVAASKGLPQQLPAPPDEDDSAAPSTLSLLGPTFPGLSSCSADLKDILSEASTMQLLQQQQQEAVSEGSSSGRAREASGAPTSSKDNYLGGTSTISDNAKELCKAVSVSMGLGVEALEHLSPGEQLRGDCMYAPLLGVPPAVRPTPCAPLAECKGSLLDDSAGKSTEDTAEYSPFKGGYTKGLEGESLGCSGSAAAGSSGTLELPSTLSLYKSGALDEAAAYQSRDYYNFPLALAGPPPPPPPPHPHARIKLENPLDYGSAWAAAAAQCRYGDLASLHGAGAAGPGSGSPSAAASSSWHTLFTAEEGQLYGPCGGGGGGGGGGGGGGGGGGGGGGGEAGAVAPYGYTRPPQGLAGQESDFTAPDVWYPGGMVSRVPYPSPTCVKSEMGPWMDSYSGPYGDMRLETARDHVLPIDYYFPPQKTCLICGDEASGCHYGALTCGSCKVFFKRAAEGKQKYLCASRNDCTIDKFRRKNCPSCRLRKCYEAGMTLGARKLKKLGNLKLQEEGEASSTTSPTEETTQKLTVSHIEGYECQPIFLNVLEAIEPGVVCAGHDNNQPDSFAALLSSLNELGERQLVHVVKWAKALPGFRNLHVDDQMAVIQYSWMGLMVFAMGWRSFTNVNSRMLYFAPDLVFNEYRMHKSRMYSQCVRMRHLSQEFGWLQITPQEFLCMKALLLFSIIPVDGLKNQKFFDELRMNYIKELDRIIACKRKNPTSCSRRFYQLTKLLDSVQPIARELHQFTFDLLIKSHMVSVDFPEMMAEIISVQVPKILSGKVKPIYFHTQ
UniProt Q92466: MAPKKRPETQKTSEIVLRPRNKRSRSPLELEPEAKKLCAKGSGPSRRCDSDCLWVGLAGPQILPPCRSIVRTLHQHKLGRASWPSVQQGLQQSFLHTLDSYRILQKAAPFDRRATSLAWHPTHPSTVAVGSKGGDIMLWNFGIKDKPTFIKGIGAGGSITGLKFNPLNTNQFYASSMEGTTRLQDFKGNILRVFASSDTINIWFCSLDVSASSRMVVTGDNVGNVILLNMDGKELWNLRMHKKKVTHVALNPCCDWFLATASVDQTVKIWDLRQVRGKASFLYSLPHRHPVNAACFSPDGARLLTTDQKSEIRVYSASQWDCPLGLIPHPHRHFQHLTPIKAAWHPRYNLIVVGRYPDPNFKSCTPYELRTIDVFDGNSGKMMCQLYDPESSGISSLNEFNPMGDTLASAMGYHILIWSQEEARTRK

In assay [1] the target is FLAG-tagged AR (UniProt P10275). Put plainly: reciprocal co-immunoprecipitation (anti-FLAG / anti-Myc) from co-transfected 293T cells, Western blot. A general note: Immunoblotting shows a protein as a band on a membrane.
For assay [2] the target is unchanged. Put plainly: co-immunoprecipitation from transfected 293T cells, Western blot.
Assay [3] deals with His-AR fusion protein (UniProt P10275). Put plainly: summary of the pull-down of purified proteins.
The target is the same in assay [4]. Description: pull-down of purified proteins, Western blot.
For assay [5] the target is unchanged. Put plainly: reciprocal pull-down (Ni-NTA / GST) of purified His-AR and GST-DDB2, Western blot with anti-His and anti-GST.

No constants are given. Whether binding was seen depends on the method and setting. In cells and extracts the contact can be indirect. Some entries that bind do so weakly or less than the wild type.

In the case of “Myc-tagged DDB2 (from UniProt Q92466 1-427)”, the binding result in assay [1] and in assay [2] was “binds” throughout.
Consider “GST-DDB2 fusion protein (from UniProt Q92466 1-427)”, for which the binding entry in assay [3], in assay [4] and in assay [5] was “binds” each time.
